# From PubChem BioAssay AID1259354 (Paczesny and Yang Labs, IUPUI and University of Michigan, 2018)
# Chains of the proteins cited; added tags and fusions are not shown. Lines headed by an entry give the natural chain unless they say otherwise; changes in a name come on top.
# UniProt Q01638: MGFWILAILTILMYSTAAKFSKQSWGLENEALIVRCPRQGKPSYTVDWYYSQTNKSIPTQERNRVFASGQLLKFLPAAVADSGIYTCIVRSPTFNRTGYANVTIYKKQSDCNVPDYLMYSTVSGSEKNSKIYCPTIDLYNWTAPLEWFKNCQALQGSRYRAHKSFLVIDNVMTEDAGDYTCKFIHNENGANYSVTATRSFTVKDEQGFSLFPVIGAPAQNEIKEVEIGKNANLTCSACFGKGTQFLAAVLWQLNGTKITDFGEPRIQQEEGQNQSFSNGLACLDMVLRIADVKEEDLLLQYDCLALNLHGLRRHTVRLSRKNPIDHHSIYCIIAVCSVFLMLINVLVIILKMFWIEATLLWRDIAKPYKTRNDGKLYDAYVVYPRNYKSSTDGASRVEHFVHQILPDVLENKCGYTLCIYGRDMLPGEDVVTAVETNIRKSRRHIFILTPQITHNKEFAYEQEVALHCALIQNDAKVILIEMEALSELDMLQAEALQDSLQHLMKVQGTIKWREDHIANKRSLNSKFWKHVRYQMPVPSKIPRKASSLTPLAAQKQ
# The whole screen tested about 78,000 compounds, of which about 1,800 (2.3%) were called active. Inconclusive means that the source gave no clear call. Such entries were picked first, then a sample of the others. Cut-off read from the data, not from the text of the source: active = inhibition above about 30%; inconclusive = mostly about 10% to 28%; inactive = weaker than that.
# Biological target: Interleukin-1 receptor-like 1 (Homo sapiens) (UniProt Q01638)
# Assay: inhibitors of human ST2 (IL1RL1) binding to IL-33, primary screen, biochemical, AlphaLISA (AID 1259354)
# Settings: AlphaLISA ST2-Fc/biotin-IL-33 interaction, 1 h; at 17 µM, hits give high values
row,Structure (SMILES),inhibition
1,Cc1nc(-c2cccs2)cc([C@H]2CN3CC[C@H]2C[C@@H]3CNC(=O)c2ccccc2)n1,inconclusive: 12%
2,CN1CCN(Cc2c(F)cccc2Cl)CC1,inconclusive: 10%
3,CC(C)NC(=O)CN1CCCN(Cc2ccccc2Cl)S1(=O)=O,inactive
4,CCOc1ccc(C(=O)OC2CC3CCC(C2)N3C)cc1 (stereo unspecified),inconclusive: 10%
5,CC(Cc1cnccn1)NCC(=O)Nc1cnccn1 (stereo unspecified),inactive
6,COc1ccc(-c2cc([C@H]3CN4CC[C@H]3C[C@@H]4CNC(=S)NCC(C)C)n(C)n2)cc1OC,inactive
7,COc1cc(CN2CCN(c3ccccc3)CC2)cc(OC)c1O,inconclusive: 11%
8,O=C1c2ccccc2NC(c2ccccc2F)N1c1ccccc1 (stereo unspecified),inconclusive: 10%
9,CN(C)Cc1cn(C[C@H]2C[C@@H]3CCN2C[C@@H]3C(=O)N(C)C)nn1,inactive
10,CC(C)(C)CC(=O)N1C[C@@H]2C[C@H](C1)c1ccc(NC(=O)C3CCCCC3)c(=O)n1C2,inconclusive: 10%
11,Fc1ccccc1N1CCN(Cc2ccc3c(c2)OCCO3)CC1,inconclusive: 15%
12,COc1ccc(OC)c(CN2CCN(c3ccccc3)CC2)c1,inconclusive: 15%
13,CC(C)NC(=O)NC[C@H]1C[C@@H]2CCN1C[C@@H]2CN1CCN(c2ccccc2)CC1,inconclusive: 28%
14,CCN1CCN(Cc2ccc(C)cc2)CC1,inconclusive: 12%
15,CCOc1ccc(CN2CCN(c3ccccc3OC)CC2)cc1,inactive
16,Cc1cc(C=O)c(C)n1C1CCCCC1,active: 30%
17,CCCn1ccnc1CN1CCN(C(C)C)C(C)C1 (stereo unspecified),inconclusive: 13%
18,CCOC(=O)C(C)Oc1cc(C)cc2oc(=O)c3c(c12)CCCC3 (stereo unspecified),inconclusive: 10%
19,COc1ccccc1N1CCN(Cc2cccc(Br)c2)CC1,inconclusive: 24%
20,Cc1ccc(C(=O)NC[C@H]2C[C@@H]3CCN2C[C@@H]3c2cc(-c3ccc(N(C)C)cc3)nn2C)cc1,inconclusive: 15%
21,C=C[C@H]1CN2CC[C@H]1C[C@@H]2CNC(=S)NCC1CCCCC1,inactive
22,O=C(c1cncnc1)N1C[C@@H]2C[C@H](C1)c1c(-c3ccc(Cl)cc3)ccc(=O)n1C2,inconclusive: 11%

# Pulled one by one from the entries so far:
row,Structure (SMILES),inhibition
19,COc1ccccc1N1CCN(Cc2cccc(Br)c2)CC1,inconclusive: 24%
18,CCOC(=O)C(C)Oc1cc(C)cc2oc(=O)c3c(c12)CCCC3 (stereo unspecified),inconclusive: 10%

# (next part)

row,Structure (SMILES),inhibition
1,CS(=O)(=O)N1C[C@@H]2C[C@H](C1)c1ccc(-c3cccc(C(F)(F)F)c3)c(=O)n1C2,inactive
2,O=C(c1cc(-c2ccncc2)nc2ccccc12)N1CCC2(CC1)OCCO2,inconclusive: 14%
3,Cc1ccc(S(=O)(=O)NC[C@H]2C[C@@H]3CCN2C[C@@H]3CN2CCCC2)cc1,inconclusive: 23%
4,CC(Cn1ccnc1)NCc1csc2c1CCCC2 (stereo unspecified),inconclusive: 12%
5,CN1C(=O)C(C2c3ccccc3Oc3ccccc32)C(=O)N(C)C1=O,inactive
6,CCN1CCN(Cc2cccc(OC)c2OC)CC1,inactive
7,COc1ccc(/C=C/c2nc3ccccc3c(=O)n2-c2ccccc2OC)cc1,active: 32%
8,COCCNC(=O)[C@H]1CN2CC[C@H]1C[C@@H]2Cn1cc(CO)nn1,inconclusive: 13%
9,N#CC1=C(N)Oc2c(c(=O)oc3ccccc23)C1c1ccc([N+](=O)[O-])s1 (stereo unspecified),inconclusive: 15%
10,CC(C)(C)c1ccc(-c2cn(C[C@H]3CC4CCN3C[C@@H]4C(=O)Nc3ccccc3)nn2)cc1 (stereo partly specified),inconclusive: 12%
11,O=C(NC[C@H]1C[C@@H]2CCN1C[C@@H]2CN1CCN(c2ccccn2)CC1)c1ccco1,inactive
12,O=C1CSC(c2ccc3c(c2)OCO3)c2c(-c3ccccc3)nn(-c3ccccc3)c2N1 (stereo unspecified),inconclusive: 18%
13,CN1C(=O)C(=Cc2cn(CC#N)c3ccccc23)C(=O)N(C)C1=O,inconclusive: 13%
14,COc1ccc(-c2cn(C[C@H]3C[C@@H]4CCN3C[C@@H]4C(=O)NC3CC3)nn2)cc1,inconclusive: 23%
15,Cc1cccc(N2CCN(Cc3cccc(F)c3)CC2)c1C,inactive
16,CSc1ccc(CN2CCN(c3cccc(C)c3C)CC2)cc1,inconclusive: 12%
17,C=CCOc1ccc(C2SCC(=O)Nc3c2c(=O)[nH]n3C2CCCC2)cc1 (stereo unspecified),inconclusive: 11%
18,C/C(=C\c1ccc(Cl)cc1)[N+](=O)[O-],inconclusive: 16%
19,O=C([C@H]1CN2CC[C@H]1C[C@@H]2Cn1cc(-c2cccc(O)c2)nn1)N1CCOCC1,inactive
20,COCCNC(=S)NC[C@H]1C[C@@H]2CCN1C[C@@H]2CN1CCC(Cc2ccccc2)CC1,inconclusive: 19%
21,CCN1C(=O)NC(=O)/C(=C\c2cn(CC(=O)NCc3ccco3)c3ccccc23)C1=O,inconclusive: 24%
22,CCCN1CCc2cc(O)cc3c2[C@H]1Cc1ccc(O)c(O)c1-3,inconclusive: 21%

row,Structure (SMILES),inhibition
1,Cc1ccc(NC(=O)N2C[C@@H]3C[C@H](C2)c2c(-c4cccs4)ccc(=O)n2C3)cc1,inconclusive: 10%
2,CC(C)(CC(=O)O)CC(=O)N1C[C@@H]2C[C@H](C1)c1ccc(-c3cccc(C#N)c3)c(=O)n1C2,inconclusive: 12%
3,COc1ccc(N2CCN(Cc3ccc(N(C)C)cc3)CC2)cc1,inconclusive: 26%
4,COc1cc2c(cc1OC)[C@]1(O)C(=O)c3ccc4c(c3O[C@@H]1CO2)C=CC(C)(C)O4,inconclusive: 11%
5,O=C(c1ccccc1)N1C[C@@H]2C[C@H](C1)c1ccc(NS(=O)(=O)c3cccs3)c(=O)n1C2,inconclusive: 16%
6,O=C(c1ccc(CS(=O)(=O)c2ccccc2)o1)N1CCC2(CC1)OCCO2,inconclusive: 13%
7,O=C(Nc1ccc2n(c1=O)C[C@H]1C[C@@H]2CN(C(=O)c2ccccn2)C1)c1ccco1,inconclusive: 12%
8,COc1ccc(-c2cc([C@H]3CN4CC[C@H]3C[C@@H]4CNC(=S)Nc3cccc(C#N)c3)n(C)n2)cc1OC,inconclusive: 16%
9,Cc1c(Br)c([N+](=O)[O-])nn1CC(=O)Nc1ccc(Cl)cc1C(=O)c1ccccc1,inactive
10,O=c1cccc2n1C[C@H]1C[C@@H]2CN(C[C@H]2CN3CC[C@H]2C[C@@H]3CNS(=O)(=O)c2ccc(Cl)cc2)C1,inconclusive: 11%
11,Cc1cccc(CN2CCN(c3cccc(C)c3C)CC2)c1,inconclusive: 15%
12,CN(CCc1ccccn1)C[C@H]1CN2CC[C@H]1C[C@@H]2CNS(C)(=O)=O,inactive
13,CN(C)c1ccc(C(=O)NC[C@H]2C[C@@H]3CCN2C[C@@H]3CN2CCC(Cc3ccccc3)CC2)cc1,inactive
14,CC(C)NC(=O)N1C[C@@H]2C[C@H](C1)c1ccc(-c3ccc4ccccc4c3)c(=O)n1C2,inconclusive: 10%
15,O=C(c1ccco1)N1C[C@@H]2C[C@H](C1)c1c(-c3ccc4ccccc4c3)ccc(=O)n1C2,inconclusive: 13%
16,COc1ccc(C(=O)N2C[C@@H]3C[C@H](C2)c2ccc(NC(=O)c4cccs4)c(=O)n2C3)cc1,inactive
17,O=c1cccc2n1C[C@H]1C[C@@H]2CN(Cc2c(Cl)cccc2Cl)C1,inconclusive: 15%
18,COc1ccc2c(c1)/C(=C/c1cnc[nH]1)C(=O)N2,inconclusive: 14%
19,CCN1CCN(C(=O)Cc2c(C(=O)O)[nH]c3ccc(Cl)cc23)CC1,inconclusive: 10%
20,COc1ccc(/C=C/c2nc3ccccc3c(=O)n2-c2ccccc2[N+](=O)[O-])cc1,active: 44%
21,CC(C)NC(=O)NC[C@H]1C[C@@H]2CCN1C[C@@H]2CN1CCSCC1,inconclusive: 17%
22,Cc1c(CCN)c2ccccc2n1-c1ccccc1,active: 37%

# A section taken from the entries so far, as a working copy:
row,Structure (SMILES),inhibition
17,O=c1cccc2n1C[C@H]1C[C@@H]2CN(Cc2c(Cl)cccc2Cl)C1,inconclusive: 15%
18,COc1ccc2c(c1)/C(=C/c1cnc[nH]1)C(=O)N2,inconclusive: 14%
19,CCN1CCN(C(=O)Cc2c(C(=O)O)[nH]c3ccc(Cl)cc23)CC1,inconclusive: 10%

# Additional compounds follow.

row,Structure (SMILES),inhibition
1,Cc1cccc(N2CCN(Cc3ccccc3[N+](=O)[O-])CC2)c1C,inconclusive: 27%
2,NCCc1c[nH]c2ccc(O)cc12,inconclusive: 12%
3,Cn1nc(-c2ccc(F)cc2)cc1[C@H]1CN2CC[C@H]1C[C@@H]2CNC(=O)NCc1ccccc1,inactive
4,COc1c[nH]c(CN2C[C@@H]3C[C@H](C2)[C@@H]2CCCC(=O)N2C3)cc1=O,inconclusive: 11%
5,COCC(=O)NC[C@H]1C[C@@H]2CCN1C[C@@H]2CN1CCN(c2ccccc2)CC1,inactive
6,O=C(Nc1ccc(=O)n2c1[C@@H]1C[C@@H](CN(S(=O)(=O)c3ccccc3)C1)C2)c1cncnc1,inconclusive: 12%
7,CC(NC(=O)c1cn(Cc2ccc(F)cc2)nn1)c1ccccc1Cl (stereo unspecified),inconclusive: 15%
8,CCN1CCN(Cc2ccc(C)cc2C)CC1,inconclusive: 14%
9,COCCC(=O)N1C[C@@H]2C[C@H](C1)c1ccc(NC(=O)C3CCCCC3)c(=O)n1C2,inactive
10,CC1CCCC(C)N1CC#CCO (stereo unspecified),inconclusive: 24%
11,O=C(NC1CCCCC1)N1C[C@@H]2C[C@H](C1)c1ccc(NS(=O)(=O)c3cccs3)c(=O)n1C2,inconclusive: 16%
12,COc1ccc(-c2cc([C@H]3CN4CC[C@H]3C[C@@H]4CNC(=O)CCCC(=O)O)n(C)n2)cc1OC,inactive
13,O=C(NCc1ccc2c(c1)OCO2)[C@H]1CN2CCC1C[C@@H]2Cn1cc(COc2ccccc2)nn1 (stereo partly specified),inconclusive: 11%
14,O=C(c1ccccc1)c1cc(Cl)ccc1NC(=O)c1cnc2n(c1=O)CCS2,inconclusive: 10%
15,COc1ccc(-c2cc([C@H]3CN4CC[C@H]3C[C@@H]4CNC(=O)C3CC3)nc(C)n2)cc1OC,inconclusive: 22%
16,Cc1nc(-c2cccs2)cc([C@H]2CN3CC[C@H]2C[C@@H]3CNC(=O)NC(C)C)n1,inactive
17,COC(=O)c1cccc(NC(=S)NC[C@H]2C[C@@H]3CCN2C[C@@H]3c2cc(-c3cccs3)nn2C)c1,inactive
18,COc1ccc2[nH]cc(CCNCCSS(=O)(=O)O)c2c1,inactive
19,S=C(NC[C@H]1C[C@@H]2CCN1C[C@@H]2CN1CCN(c2ncccn2)CC1)Nc1ccccc1,inconclusive: 19%
20,O=c1c2ccccc2nc(/C=C/c2ccc(O)cc2)n1-c1cccc([N+](=O)[O-])c1,active: 34%
